# Measurements: PubChem BioAssay AID602441 (National Center for Advancing Translational Sciences (NCATS), 2012)
# In all, about 1,300 compounds went through this assay and fewer than 10 were called active. Inconclusive results (about 9%) are left out. Calls follow the shape of the dose curve; as a rule, active = well fitted curve in the direction sought with a large enough effect; inconclusive = small, poorly fitted or top-dose-only effect, or another doubt; inactive = no such curve, though single readings can be large or run the other way. The list shows a part of the results.
# Experiment: qHTS for antagonists of the Thyroid Stimulation Hormone Receptor: Hit Validation in Parental Cell Line; also: 0% is about no effect
# Conditions: parental HEK293 cells lacking TSHR, counter-screen; at 56.9 µM (top of the series)
# From the text: The thyroid-stimulating hormone receptor (TSHR) is a member of the 7 trans-membrane-spanning receptor (7TMR) family of cell surface receptors. TSHR-mediated hyperthyroidism is important in thyroid pathology. The development of small molecule antagonists of TSHR may lead to therapeutic approaches for TSHR-mediated hyperthyroidism caused by constitutively activating mutations or stimulating auto-antibodies associated with Graves' disease. Graves' disease is the leading cause of hyperthyroidism and is caused by autoantibodies that stimulate TSHR (TsAbs) causing thyroid growth and unregulated overproduction of thyroid hormones and existing treatments have liabilities (agranulocytosis). In addition, TSHRs are known to be expressed in multiple extrathyroidal tissues including bone, brain, kidney, testis, fat and cells of the immune system but the role of the TSHR in these tissues is not clear. Therefore, TSHR antagonists/inverse agonists could be used as probes of extrathyroidal TSHR function. Finally, TSHR inverse agonists, which are a subclass of antagonists that inhibit agonist-independent (or basal or constitutive) TSHR signaling, could be used to inhibit TSH-independent signaling in patients with recurrent or metastatic thyroid cancer who are receiving thyroid hormone to suppress TSH.
# In collaboration between scientist from the NCGC and the NIDDK, a miniaturized HTRF high-throughput screen was developed. It's a cell based assay, where an anti cAMP antibody contains a fluorescent cryptate tag (excitation 337 nm; emission 620 nm) and the acceptor is cAMP-d2 (excitation 620 nm; emission 665 nm). When antibody and cAMP-d2 interact and are excited by a 337 nm light, a FRET occurs resulting in emission at 665 nm. The assay is competition between cAMP-d2 and cAMP (from the cell lysate). The homogeneous protocol allows for one step dispense after stimulation that is automation friendly. This is a hit validation assay in a counterscreen using parental HEK 293 cells lines.
# NIH Chemical Genomics Center [NCGC]
# NIH Molecular Libraries Probe Centers Network [MLPCN]
# Assay Provider: Marvin Gershengorn, NIDDK
# An anti cAMP antibody contains a fluorescent cryptate tag (excitation 337 nm; emission 620 nm) and the acceptor is cAMP-d2 (excitation 620 nm; emission 665 nm). When antibody and cAMP-d2 interact and are excited by a 337 nm light, a FRET occurs resulting in emission at 665 nm. The assay is competition between cAMP-d2 and cAMP (from the cell lysate). The homogeneous protocol allows for one step dispense after stimulation that is automation friendly. This assay uses parental HEK-EM 293 cells
row,Structure (SMILES),"activity change, negative = inhibition"
1,Cc1nc2ccccc2c(=O)n1-c1cccc(C(F)(F)F)c1,inactive: 4.59%
2,COC(=O)C1=C(c2ccc(-c3ccccc3)c(F)c2)C[C@@H]2CC[C@H]1N2C(=O)NCCOc1ccccc1,inactive: 0.638%
3,CC12CCC3C(CC=C4CC5(CCC43C)OCCO5)C1CCC2=O (centres undefined),inactive: 1.45%
4,COC(=O)C1=C(c2ccc(OCc3ccccc3)cc2)C[C@@H]2CC[C@H]1N2C(=O)NCc1cccc(OC)c1,inactive: 7.23%
5,COC(=O)C1=C(c2ccc(-c3ccccc3)c(F)c2)C[C@@H]2CC[C@H]1N2C(=O)NCCc1ccccc1,inactive: 0.764%
6,C[C@]12CC[C@H](O)C[C@H]1CC[C@@H]1C2CC[C@]2(C)[C@@H](C3=CC(=O)OC3)[C@@H](O)C[C@]12O (some centres undefined),inactive: -1.32%
7,Cc1ccc(-n2c(C)nc3ccccc3c2=O)c(C)c1,inactive: 3.25%
8,Oc1ccc(-[n+]2c(-c3ccccc3)cc(-c3ccccc3)cc2-c2ccccc2)cc1,inactive: -10.6%
9,COC(=O)C1=C(c2ccc(-c3ccccc3)c(F)c2)C[C@@H]2CC[C@H]1N2C(=O)NCc1ccc(F)cc1,inactive: -1.78%
10,COc1ccc(-[n+]2c(-c3ccccc3)cc(-c3ccc(C)cc3)cc2-c2ccccc2)cc1,inactive: -8.58%
11,CCN(CC)S(=O)(=O)c1ccc(NN=C(C#N)C#N)cc1,inactive: -3.54%
12,C[C@]12CC[C@H]3[C@@H](CC[C@]4(O)C[C@@H](O)CC[C@]34C=O)[C@@]1(O)CC[C@@H]2C1=CC(=O)OC1,inactive: -2.73%
13,COC(=O)C1=C(c2ccc(OC(F)(F)F)cc2)C[C@@H]2CC[C@H]1N2C(=O)N1CCC(C)CC1,inactive: -2.64%
14,Nc1ccc(C2(c3ccc(N)cc3)c3ccccc3-c3ccccc32)cc1,inactive: 2.12%
15,COC(=O)C1=C(c2ccc(-c3ccccc3)c(F)c2)C[C@@H]2CC[C@H]1N2C(=O)NCCCOC(C)C,inactive: 0.51%
16,COC(=O)C1=C(c2ccc(-c3ccccc3)c(F)c2)C[C@@H]2CC[C@H]1N2C(=O)N1CCOCC1,inactive: 1.35%
17,CNc1ccc2oc(C[C@H]3O[C@@]4(CC[C@H]3C)O[C@H]([C@H](C)C(=O)c3ccc[nH]3)[C@H](C)C[C@H]4C)nc2c1C(=O)O,inactive: 36%

row,Structure (SMILES),"activity change, negative = inhibition"
1,COc1cc(C(C)=O)ccc1OC(=O)N(C)c1ccccc1,inactive: 4.74%
2,COc1cc(N2C(=O)CC(=O)NC2=O)cc(OC)c1OC,inactive: 4.16%
3,O=C(Nc1ccc2ccccc2c1)c1nn(C23CC4CC(CC(C4)C2)C3)cc1Br,inactive: -1.47%
4,CCCCN=C[C@]12CCC(O)CC1(O)CCC1[C@@H]2CC[C@]2(C)[C@H](C3C=CC(=O)O3)CCC12O (some centres undefined),inactive: -5.86%
5,O=C(C1CCN(c2nc3ccc(Br)cc3s2)CC1)N1CCC2(CC1)OCCO2,inactive: -8.68%
6,COC(=O)C1=C(c2ccc(-c3ccccc3)c(F)c2)C[C@@H]2CC[C@H]1N2C(=O)NCC1CC1,inactive: -3.4%
7,C[C@H]1O[C@@H](OC2CC[C@]3(C=O)[C@H]4CC[C@]5(C)[C@@H](C6=CC(=O)OC6)CC[C@]5(O)[C@@H]4CC[C@]3(O)C2)CC2OC(C)(C)OC21 (some centres undefined),inactive: -3.08%
8,CNc1cc(Cl)c2nonc2c1[N+](=O)[O-],inactive: -11.7%
9,CNc1ccc2nc3ccccc3[n+](C)c2c1,inactive: -9.64%
10,CC(=O)c1ccc2c(c1)C1C(Cl)C(Sc3ccccc3[N+](=O)[O-])CC1C(C(=O)O)N2 (centres undefined),inactive: -9.2%
11,COc1cc2c(cc1/C=C/[N+](=O)[O-])OCO2,inactive: -8.58%
12,C[C@]12CC[C@H](O)C[C@H]1CC[C@@H]1[C@@H]2CC[C@]2(C)[C@@H](C3=CC(=O)OC3)CC[C@]12O,inactive: -15.8%
13,C[C@]12CCC3C(CCC4=CC(O)CC[C@@]43/C=N/O)C1(O)CCC2C1=CC(=O)OC1 (some centres undefined),inactive: -6.66%
14,COC(=O)C1=C(c2ccc(-c3ccccc3)c(F)c2)C[C@@H]2CC[C@H]1N2C(=O)NCc1ccco1,inactive: 2.82%
15,COC(=O)C1=C(c2ccc(-c3ccccc3)c(F)c2)C[C@@H]2CC[C@H]1N2C(=O)NC(C)C,inactive: 1.51%
16,C[C@]12CC[C@H]3C(CCC4(O)CC(O)CC[C@]34C=O)C1=CC[C@H]2c1ccc(=O)oc1 (some centres undefined),inactive: -5.86%
17,Cc1ccccc1-c1nc(CS(=O)CC(=O)N2CCC3(CC2)OCCO3)c(C)o1 (centres undefined),inactive: -0.666%

# A section taken from the entries so far, for reference:
row,Structure (SMILES),"activity change, negative = inhibition"
5,O=C(C1CCN(c2nc3ccc(Br)cc3s2)CC1)N1CCC2(CC1)OCCO2,inactive: -8.68%
6,COC(=O)C1=C(c2ccc(-c3ccccc3)c(F)c2)C[C@@H]2CC[C@H]1N2C(=O)NCC1CC1,inactive: -3.4%
